Data on 107 sequences can be found in PubChem BioAssay AID1508600 (Functional Genomics Laboratory (NCATS/FGL), 2020).

Screen size: about 53,000 sequences; about 3,700 (7%) were called active.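 The calls were made as follows: active = gene knockdowns whose robust z-score for IL-1 alpha signal is at least 2 or at most -2, so actives lie on both sides; inactive = the rest.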 Some of the results follow.

The nature of this experiment: Components of the Cytosolic LPS Sensing Pathway: Gene Identification via Genome-wide siRNA Screen.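 Also: robust z of the log signal after scaling to non-targeting control siRNA wells of the plate.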 The settings on record: RAW264.7 macrophages, IL-1a HTRF, actives lie on both sides, screened at 100 nM (by protocol), cells primed 5 h with Pam3CSK4 first. The method in brief: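 Cells (RAW264.7, 1×10^4 per well) were transfected with siRNA at 100 nM and cultured 48h at 37 degrees C. Pam3CSK4 was added for 5 hours; LipidA transfection followed for 24 hour. IL-1a was then measured by HTRF.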
In general terms: Time-resolved FRET reads energy transfer from a long-lived donor to a nearby acceptor.
GGUAAUGAGAUGUCAUUUCTT against Spock1: the z-score was inactive: 0.355.

Consider GGAUGUGAAACAUGCUUUUTT against Olfr1030, for which the z-score is inactive: 0.536.

GGAGGAUUAGUAAAUUCAATT against Ier2: the z-score is inactive: 1.75.

With GCCAAUAAAGUCGGUGAAATT against H2aj, the z-score is inactive: -0.244.

As for GGAGAUGUUACACAAAAUCTT against Septin4, the z-score was inactive: -1.43.

Consider GGUACAACUCUAAGAGAAGTT against Rpl39, for which the z-score is inactive: 0.528.

Consider “GGAGAGUGACAACAGCUUCTT against 1700037H04Rik”, for which the z-score was inactive: -1.05.

With GGGAGGUAAGAAUCUUUAUTT against Mphosph8, the z-score was inactive: 1.1.

Consider GGGAAAUUCAGUCUCAUUCTT against P2rx2, for which the z-score was inactive: -0.709.

In the case of GGUGGAGUGUUAUUAUAGGTT against Smim8, the z-score is inactive: 0.209.

As to GGACUUUGAGAAGGUCGAUTT against Khk, the z-score is inactive: 0.239.

Regarding GGAGGAGCAGAUAGACUCATT against Ncln, the z-score was inactive: 0.0769.

Turning to GGAGUAACAACACAACAUUTT against Mab21l1, the z-score is inactive: 1.43.

Regarding CCAUACAAGGGUGACAAUUTT against Olfr822, the z-score is inactive: 0.253.

As for GGAAGAUGGCACUGAGAUCTT against Itgae, the z-score was inactive: 1.05.

For the sequence GGCCACUUUGGCUGAAAUUTT against Tbr1, the z-score was inactive: 0.422.

Turning to GCUGGAUACAUUGUGUUCUTT against Rnf44, the z-score was inactive: 0.58.

Consider GCACCCUCCACCAUUGUGATT against Sqstm1, for which the z-score was inactive: -1.09.

Regarding GGGCAACCUUCGUGUCAAGTT against P4htm, the z-score is inactive: 0.037.

Turning to GGAACAAGGCUUUUUCCACTT against Olfr481, the z-score is inactive: 0.566.

Take GCUUGUUUCUAUGAUUAAGTT against Phf10: the z-score is inactive: 0.0674.

Turning to GCCCUUAGAGAGAAUUUAUTT against Lmo2, the z-score was inactive: 0.63.

Take CGAUUGUCAGGAUCCAUUUTT against Vipr1: the z-score was inactive: -0.787.

In the case of CCAAAGAUGCUAGUUGACCTT against Olfr1135, the z-score was inactive: -0.186.

GGCAAUUCUGAAGAAACCATT against Ogn: the z-score was active: -2.23.

As to GGAUGUGGCGCAAUAUAUUTT against Gpt, the z-score is inactive: 1.01.

Take GGGCACACUGUAAAGUUGGTT against Mid1ip1: the z-score was inactive: -0.0466.

For the sequence GGUUGAGCUGAAGAAUGGATT against Htra1, the z-score was inactive: 0.332.

On to GGAGACUGGAGCUUCAUCUTT against Lpar2, for which the z-score was inactive: 0.318.

Take GGCUGUCAUACUUUCAGGGTT against Hyal5: the z-score is active: 2.51.

Take GGAAAUUCAGAUGCUGAAGTT against Erc1: the z-score was inactive: -1.08.

Take GGACAAAAGGCAGCUUAUUTT against Cnot3: the z-score is inactive: -1.45.

With GGGUUUAAAAUCUGUAGAUTT against Edrf1, the z-score was inactive: 0.162.

In the case of GGACAGAGUCUUCAAAACGTT against Fastkd3, the z-score is inactive: -1.52.

Regarding GCCAAGCACUGGACUAUGATT against Cdk5r2, the z-score is inactive: 0.345.

Consider “GCAACAAAAGGCCUAAUCATT against 4930550C14Rik”, for which the z-score was inactive: -1.74.

On to GGAUAAGGUAAUCUCGGUATT against Olfr710, for which the z-score was inactive: -0.472.

As for GGUCCUUAAUCAUCUGCAUTT against Galr1, the z-score was inactive: -0.477.

In the case of GGAUUAUCAAUGAAUAGCATT against Gabrb2, the z-score was inactive: 0.913.

As for GGUUGAAAAUGGAAGAGUATT against Mbnl2, the z-score was active: -2.27.

Regarding GGAAUAGGAUCUAAUCUAATT against Tasp1, the z-score is inactive: -0.068.

As for GGACAUGUGCAUGAAGGUUTT against Cryl1, the z-score is inactive: 0.541.

For the sequence GGGCGAGGCCAAUUUCUUCTT against Ints11, the z-score is inactive: 0.362.

As for GGAAGUUGAAAAUGAAAACTT against Myom2, the z-score was inactive: 0.841.

As to GCGAUUGAAGUCUCAGGGATT against Nrde2, the z-score was inactive: -1.03.

As to GGCAAGAAUGGGAUAAUACTT against Spice1, the z-score is inactive: -1.92.

Take GGCUGUGAUAUUGUUAUUCTT against Dmxl2: the z-score is inactive: 0.13.

For CGGUUCCUCUAACAUGAUATT against Ppp1r2, the z-score is inactive: 0.0902.

As to GCUCUGAUAUUCUCAUCAATT against Olfr39, the z-score was inactive: 1.25.

With GGUAGGAAGCUAGAGAAAUTT against Synj2, the z-score was inactive: 0.139.

With CGGUCUUGUGGUCUUUUACTT against Rab7, the z-score was inactive: -0.222.

GCUCUUGUUAUUUACGUCGTT against Lgi1: the z-score is inactive: 0.478.

Turning to CCAAAUCCGGGAAAAAGAGTT against Armcx5, the z-score was inactive: -0.459.

As for GGACCUAUUACCUCAAUGATT against Spatc1l, the z-score was active: -2.59.

On to GCAAUGGACCAUUUUCUUUTT against Olfr812, for which the z-score is inactive: -0.239.

With GGCUGAGAACAAUAUGUAUTT against Ccdc80, the z-score was inactive: 0.323.

GGCACUGAAUGACUUUGUGTT against Pik3cd: the z-score is inactive: -0.844.

Take GCUGGACCGAAUUGAUUCATT against Egfl7: the z-score was inactive: 1.55.

With CGUCAACCUUUGGUACAAATT against Cabin1, the z-score was inactive: -0.294.

For GUCUUUUUAUGGAUGUAUGTT against Vmn1r38, the z-score was inactive: 0.208.

As to UGAAGUGGUGAAUCAGAGUTT against Olfr1167, the z-score is inactive: -1.21.

On to GGAGAAAGAGCAGAGUCUGTT against Cep250, for which the z-score is active: -2.04.

Regarding GCAUAAAGCAAGGUUGAGUTT against Pvr, the z-score is inactive: -0.949.

Turning to GGGAACGAGAACCGAUUUGTT against Tfpi, the z-score is inactive: 0.895.

As for GGACUGCCUUAAUUAAAGUTT against Coa6, the z-score is inactive: 1.7.

On to GGGUCUGCUACAUCUUCGGTT against Ino80e, for which the z-score was active: 2.27.

Turning to GGCAGUCUUAUAAUUCAUCTT against Zfp944, the z-score is inactive: -1.08.

CCUGCACACCAAGUAUCUGTT against Ccl6: the z-score is inactive: -0.252.

As for GGUGAAGGCCAUCAAUUUCTT against Gabbr1, the z-score was inactive: -0.351.

In the case of CGCUUACAAGCUAACCUCATT against Mrgprd, the z-score was inactive: -0.517.

For GGAGCUGUUCUCAUCCGUUTT against Fam199x, the z-score is inactive: 0.277.

As to GGACCUCGAGGACUUGUUCTT against Srsf9, the z-score is inactive: 0.972.

In the case of GGAGAAGAGUUUCCUCUGATT against Rtn4ip1, the z-score was inactive: -1.25.

For GAAUGAAAGGUACGAAAAATT against Ang4, the z-score was inactive: 0.453.

As for GAAUGUUUACAUGCCACACTT against Ttbk1, the z-score is inactive: 0.22.

Turning to GCGGAAACUCUCGAAAGUGTT against Dhx34, the z-score was inactive: -1.52.

Take GGAUCCGAACAUCCUCAGGTT against Hr: the z-score was active: -2.22.

Consider GGUGCACUCUGUCAGUUCATT against Col27a1, for which the z-score was inactive: -0.352.

For the sequence GGACGAACAAUAGAAGAACTT against Agtpbp1, the z-score is inactive: 0.813.

Turning to GGUAACAUCAACACCAAACTT against Nit1, the z-score was inactive: -1.6.

On to CCGAGAGCCAAGAUGCCAATT against Armc7, for which the z-score is inactive: -0.178.

With GGAACAAAGAAGUCAAAGATT against Olfr16, the z-score is inactive: -0.765.

With GGAGAGAAGUUUAUGAAAGTT against Ankk1, the z-score is inactive: 0.0135.

For the sequence GGAUUUCAAUAGGCUCUCUTT against Rnf19a, the z-score was inactive: -1.7.

With CCUACAGGCGGAGAAACAUTT against Serhl, the z-score was inactive: -1.28.

Regarding GGUCCAUGGAAUAGUACGGTT against Gmds, the z-score is inactive: 0.917.

For GGGUUGUACUGAAAUAGUGTT against Il1rap, the z-score is inactive: 0.397.

As to GGGUUUGAAAAUUGUACAATT against Sypl, the z-score was inactive: 1.49.

In the case of CCCUUAUAUUUCUAACAGUTT against Chchd2, the z-score was inactive: 0.345.

For the sequence GGCACAGUAUGUACUAACUTT against Gpld1, the z-score was inactive: -1.81.

Consider ACCUGGGCCUAUGCCUUACTT against Ascl2, for which the z-score was inactive: -0.573.

As for “GCCUGGAUUUAUCGAAUUATT against 2610524H06Rik”, the z-score was inactive: 0.453.

Turning to GGCAUUUUAUAAGUUUGAGTT against Mitf, the z-score is inactive: 0.978.

Take GCUUACCUAGUGCUCUUAATT against Kctd15: the z-score is inactive: 0.149.

Take GGUGUUAAGACUAAAACUUTT against Plxdc2: the z-score was inactive: -0.995.

As to GUUGGCAUAUUUUAUGGCATT against Olfr1033, the z-score is inactive: 1.28.

Consider GCUAGACAUCGGUUCUUAUTT against Eomes, for which the z-score was inactive: 0.79.

For the sequence GAUACAGAUCGCCAAGAGCTT against H2-D4, the z-score is inactive: -0.455.

For the sequence GCUGGAUAUGGUCAAGGCGTT against Ndufa5, the z-score was inactive: 0.493.

Regarding GGUAAGUGAACUAUCUAAGTT against Far2, the z-score is inactive: 0.934.

Regarding GGAACAGAAAGCAGUGUACTT against Dnajc9, the z-score is inactive: 1.22.

For CGGACUUCUCAAGACUUAUTT against Nlrc5, the z-score is inactive: -0.897.

Regarding CCUGCUUAAAGAUUACCCATT against Flt3l, the z-score is inactive: -1.46.

As for GGGAAGAGCAUGUUUGCUGTT against Surf4, the z-score is inactive: 0.982.

For the sequence GGCCUUCAUGGAUUAUACCTT against Serpinb9, the z-score is active: 2.09.

Consider GCUUCUGACAUAUUGUGCATT against Phxr2, for which the z-score was inactive: -0.488.

With “GCUCUCGGUUCCACUUUCATT against 4932438H23Rik”, the z-score is inactive: -0.212.
